According to article PMC11797056, “The ATPase activity of yeast chromosome axis protein Hop1 affects the frequency of meiotic crossovers” (Nucleic Acids Research, 2024):
Changes are numbered by the printed parent chain. Construct, isoform or probe ends are uncertain for at least one entry. At least one verdict rests on a figure or table, not on a statement of the authors. Where a protein sequence is shown, tags need not be part of it.

Key:
Test in all cases: EMSA
Conditions in all cases: similar to WT, Kd in Fig 8K; EMSA: 25 mM HEPES pH 7.5, 0.5 nM 32P-HJ, 37 C 15 min, 8% PAGE in TBE (25 mM Tris base pH 8.0, 25 mM boric acid, 0.5 mM EDTA) at …; recombinant protein; residues 1-605; protein details: His6 (pET28a); label: 5'-32P on HJ02; folded or branched DNA
[1] = molecular target: T1, Hop1 N67Q (Saccharomyces cerevisiae) (UniProt P20050)
T1 sequence (looked up): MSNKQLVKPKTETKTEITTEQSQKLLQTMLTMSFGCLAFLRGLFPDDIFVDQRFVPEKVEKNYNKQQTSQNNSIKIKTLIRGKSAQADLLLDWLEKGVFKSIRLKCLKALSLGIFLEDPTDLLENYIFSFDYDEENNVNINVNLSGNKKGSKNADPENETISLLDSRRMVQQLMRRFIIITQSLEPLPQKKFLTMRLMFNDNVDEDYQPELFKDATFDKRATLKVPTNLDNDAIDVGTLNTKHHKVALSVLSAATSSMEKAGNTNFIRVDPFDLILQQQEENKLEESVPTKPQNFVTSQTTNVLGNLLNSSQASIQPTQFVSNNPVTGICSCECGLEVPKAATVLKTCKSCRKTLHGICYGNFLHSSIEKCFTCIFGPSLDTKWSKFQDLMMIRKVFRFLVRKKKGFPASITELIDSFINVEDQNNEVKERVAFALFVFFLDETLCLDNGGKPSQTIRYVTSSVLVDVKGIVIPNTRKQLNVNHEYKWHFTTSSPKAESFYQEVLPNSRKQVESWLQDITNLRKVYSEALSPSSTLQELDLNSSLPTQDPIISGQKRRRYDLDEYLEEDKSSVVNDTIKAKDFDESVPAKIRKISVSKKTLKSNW

[2] = molecular target: T2, Hop1 R558A (Saccharomyces cerevisiae) (UniProt P20050)
T2 sequence (looked up): T1 sequence (looked up) with Q67N, R558A

[3] = molecular target: T3, Hop1 R352A (Saccharomyces cerevisiae) (UniProt P20050)
T3 sequence (looked up): T1 sequence (looked up) with Q67N, R352A

[4] = molecular target: T4, Hop1 K65A (Saccharomyces cerevisiae) (UniProt P20050)
T4 sequence (looked up): T1 sequence (looked up) with K65A, Q67N

[5] = molecular target: T5, Hop1 N139Q (Saccharomyces cerevisiae) (UniProt P20050)
T5 sequence (looked up): T1 sequence (looked up) with Q67N, N139Q

Measured: binding result

GACGCTGCCGAATTCTACCAGTGCCTTGCTAGGACATCTTTGCCCACCTGCCGGTTCACCC / TGGGTGAACCTGCAGGTGGGCAAAGATGTCCTAGCAATGTAATCGTCAAAGCTTTATGCCGTT / CAACGGCATAAAGCTTGACGATTACATTGCTAGGACATGCTGTCTAGAGGATCCGACTATCGA / ATCGATAGTCGGATCCTCTAGACAGCATGTCCTAGCAAGGCACTGGTAGAATTCGGCAGCGT [Holliday junction (HJ), 32P]
binds: all assays above
